This is one part of the list.
compound: CCCS(=O)(=O)Nc1ccc(F)c(C(=O)c2c[nH]c3ncc(Cl)cc23)c1F; assay: log2 fold change, soluble protein after heating vs DMSO (PISA); higher = thermal stabilisation; K562 lysate, 10 uM; active = over 0.2 and 3.5 SD of the protein, either way, in both replicates (recomputed)
Outline: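 K562 pellets were dounce-homogenised in PBS pH 7.4 with 1 mM MgCl2, and the crude extract at 1 mg/mL protein was treated with 10 μM compound for 30 min. Aliquots were heated for 3 min across 48°C-58°C, pooled, and brought to 0.5% NP-40 at 4°C; soluble protein was the supernatant after 21,000xg for 90 min. Soluble protein was quantified by TMTpro 16plex LC-MS/MS with channel sums equalised, and reported as log2 fold change in thermal stability against DMSO controls, with values from duplicates.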

The chains behind the UniProt entries cited, without tags or fusion partners. Where a name states a change or a piece, a line headed by the entry shows the natural chain unless it says otherwise.
UniProt Q9H497: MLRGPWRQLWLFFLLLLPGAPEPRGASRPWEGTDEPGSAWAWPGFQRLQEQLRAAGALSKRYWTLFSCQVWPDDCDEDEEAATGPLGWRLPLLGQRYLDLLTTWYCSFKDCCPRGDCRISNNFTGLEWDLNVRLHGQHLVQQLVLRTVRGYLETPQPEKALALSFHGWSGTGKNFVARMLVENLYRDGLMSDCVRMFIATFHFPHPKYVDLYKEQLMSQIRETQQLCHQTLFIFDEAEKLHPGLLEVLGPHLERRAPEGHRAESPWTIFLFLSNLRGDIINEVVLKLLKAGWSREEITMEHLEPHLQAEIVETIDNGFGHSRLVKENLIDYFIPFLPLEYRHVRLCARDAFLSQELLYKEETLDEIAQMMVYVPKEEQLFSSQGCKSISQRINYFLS
UniProt Q5T3F8: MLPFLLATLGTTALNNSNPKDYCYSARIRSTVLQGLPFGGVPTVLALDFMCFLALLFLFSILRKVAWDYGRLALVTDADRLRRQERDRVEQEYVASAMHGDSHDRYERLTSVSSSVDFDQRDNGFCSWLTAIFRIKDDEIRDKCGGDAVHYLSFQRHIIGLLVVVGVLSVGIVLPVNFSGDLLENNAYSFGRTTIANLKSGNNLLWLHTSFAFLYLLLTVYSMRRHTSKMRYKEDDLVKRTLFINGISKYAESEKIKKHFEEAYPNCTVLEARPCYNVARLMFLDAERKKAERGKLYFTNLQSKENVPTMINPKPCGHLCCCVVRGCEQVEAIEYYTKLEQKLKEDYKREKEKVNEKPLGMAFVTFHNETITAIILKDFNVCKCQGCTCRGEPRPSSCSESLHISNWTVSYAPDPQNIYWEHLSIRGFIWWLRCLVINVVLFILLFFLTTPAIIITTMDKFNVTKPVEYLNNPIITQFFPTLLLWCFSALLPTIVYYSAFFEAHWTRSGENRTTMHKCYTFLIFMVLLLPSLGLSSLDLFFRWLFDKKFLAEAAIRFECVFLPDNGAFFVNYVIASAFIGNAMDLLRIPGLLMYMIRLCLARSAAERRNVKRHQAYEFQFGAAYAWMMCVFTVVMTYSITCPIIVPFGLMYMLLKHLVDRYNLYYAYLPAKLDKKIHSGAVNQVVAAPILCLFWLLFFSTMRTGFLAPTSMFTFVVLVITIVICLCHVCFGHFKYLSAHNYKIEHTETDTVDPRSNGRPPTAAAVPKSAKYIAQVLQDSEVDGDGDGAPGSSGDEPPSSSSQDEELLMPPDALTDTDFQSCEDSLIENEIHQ
UniProt O14773: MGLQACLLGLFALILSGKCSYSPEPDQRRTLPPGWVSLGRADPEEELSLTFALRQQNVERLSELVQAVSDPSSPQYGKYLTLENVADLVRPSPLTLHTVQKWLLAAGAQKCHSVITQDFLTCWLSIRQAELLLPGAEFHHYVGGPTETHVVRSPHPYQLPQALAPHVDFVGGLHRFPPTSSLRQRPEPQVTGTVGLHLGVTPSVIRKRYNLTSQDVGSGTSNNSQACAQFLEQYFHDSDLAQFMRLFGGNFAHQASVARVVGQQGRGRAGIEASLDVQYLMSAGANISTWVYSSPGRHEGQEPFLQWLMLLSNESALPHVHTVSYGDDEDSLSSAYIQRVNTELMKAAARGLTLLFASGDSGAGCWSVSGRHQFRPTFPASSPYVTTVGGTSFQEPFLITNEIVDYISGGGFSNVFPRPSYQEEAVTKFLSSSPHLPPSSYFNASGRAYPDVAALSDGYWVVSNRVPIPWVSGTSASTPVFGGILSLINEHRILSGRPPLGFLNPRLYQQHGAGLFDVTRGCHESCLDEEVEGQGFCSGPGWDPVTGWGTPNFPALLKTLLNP
UniProt O43399: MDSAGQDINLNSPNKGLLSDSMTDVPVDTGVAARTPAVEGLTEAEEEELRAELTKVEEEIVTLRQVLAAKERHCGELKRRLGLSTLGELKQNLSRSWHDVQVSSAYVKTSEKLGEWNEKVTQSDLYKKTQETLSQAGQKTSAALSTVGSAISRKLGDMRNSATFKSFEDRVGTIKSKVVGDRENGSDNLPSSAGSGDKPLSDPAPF
UniProt Q13595: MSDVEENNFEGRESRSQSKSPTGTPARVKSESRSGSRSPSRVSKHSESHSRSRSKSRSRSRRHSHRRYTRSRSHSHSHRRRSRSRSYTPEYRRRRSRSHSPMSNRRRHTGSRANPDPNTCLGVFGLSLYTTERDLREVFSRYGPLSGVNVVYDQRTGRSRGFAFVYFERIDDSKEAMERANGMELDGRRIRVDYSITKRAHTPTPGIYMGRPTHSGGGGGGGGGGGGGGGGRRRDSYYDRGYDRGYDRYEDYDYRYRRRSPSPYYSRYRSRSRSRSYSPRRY
UniProt Q9NS69: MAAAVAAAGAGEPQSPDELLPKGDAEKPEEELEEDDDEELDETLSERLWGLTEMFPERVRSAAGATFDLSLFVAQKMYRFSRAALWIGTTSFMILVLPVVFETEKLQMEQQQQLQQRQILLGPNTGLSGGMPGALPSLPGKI
UniProt P09493, whole entry, looked up: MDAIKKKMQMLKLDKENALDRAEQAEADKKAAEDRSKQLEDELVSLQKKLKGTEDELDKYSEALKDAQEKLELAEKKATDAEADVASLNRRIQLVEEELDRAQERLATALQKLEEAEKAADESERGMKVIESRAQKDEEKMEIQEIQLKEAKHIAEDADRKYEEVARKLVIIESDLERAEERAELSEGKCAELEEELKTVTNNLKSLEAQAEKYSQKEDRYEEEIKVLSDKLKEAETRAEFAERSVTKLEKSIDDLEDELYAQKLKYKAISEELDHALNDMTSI
UniProt O60784, whole entry, looked up: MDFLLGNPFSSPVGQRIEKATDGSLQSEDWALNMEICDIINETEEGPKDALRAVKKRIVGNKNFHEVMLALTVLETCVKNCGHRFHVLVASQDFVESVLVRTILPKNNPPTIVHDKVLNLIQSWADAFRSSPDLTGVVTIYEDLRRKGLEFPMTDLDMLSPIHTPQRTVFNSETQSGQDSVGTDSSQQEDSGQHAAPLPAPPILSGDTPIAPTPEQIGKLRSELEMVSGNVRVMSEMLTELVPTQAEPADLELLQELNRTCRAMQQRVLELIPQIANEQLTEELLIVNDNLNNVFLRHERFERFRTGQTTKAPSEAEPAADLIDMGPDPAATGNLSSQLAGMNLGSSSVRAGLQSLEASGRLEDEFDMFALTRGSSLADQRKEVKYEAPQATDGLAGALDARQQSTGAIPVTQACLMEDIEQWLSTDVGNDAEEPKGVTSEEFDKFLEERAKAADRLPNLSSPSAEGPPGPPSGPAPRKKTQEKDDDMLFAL
UniProt Q9ULW0, whole entry, looked up: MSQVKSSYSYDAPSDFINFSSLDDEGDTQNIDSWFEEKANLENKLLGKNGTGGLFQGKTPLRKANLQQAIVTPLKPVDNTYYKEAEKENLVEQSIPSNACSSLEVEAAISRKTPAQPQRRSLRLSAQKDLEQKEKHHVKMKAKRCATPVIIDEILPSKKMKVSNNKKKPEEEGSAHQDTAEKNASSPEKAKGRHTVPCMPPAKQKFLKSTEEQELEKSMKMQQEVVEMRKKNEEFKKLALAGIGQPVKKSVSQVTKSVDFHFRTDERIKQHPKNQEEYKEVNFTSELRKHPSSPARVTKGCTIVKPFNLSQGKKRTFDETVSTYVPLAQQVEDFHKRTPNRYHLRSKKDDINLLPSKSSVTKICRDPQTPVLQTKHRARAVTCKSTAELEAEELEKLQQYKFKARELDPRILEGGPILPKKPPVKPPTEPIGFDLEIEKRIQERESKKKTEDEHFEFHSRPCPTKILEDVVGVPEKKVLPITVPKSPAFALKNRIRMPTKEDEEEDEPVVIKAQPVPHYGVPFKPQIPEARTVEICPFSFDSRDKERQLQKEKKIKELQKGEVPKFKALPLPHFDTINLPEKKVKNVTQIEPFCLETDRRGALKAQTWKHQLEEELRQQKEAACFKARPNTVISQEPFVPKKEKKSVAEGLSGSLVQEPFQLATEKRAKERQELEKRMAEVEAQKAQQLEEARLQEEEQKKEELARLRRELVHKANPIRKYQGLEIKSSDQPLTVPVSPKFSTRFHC
UniProt P11387: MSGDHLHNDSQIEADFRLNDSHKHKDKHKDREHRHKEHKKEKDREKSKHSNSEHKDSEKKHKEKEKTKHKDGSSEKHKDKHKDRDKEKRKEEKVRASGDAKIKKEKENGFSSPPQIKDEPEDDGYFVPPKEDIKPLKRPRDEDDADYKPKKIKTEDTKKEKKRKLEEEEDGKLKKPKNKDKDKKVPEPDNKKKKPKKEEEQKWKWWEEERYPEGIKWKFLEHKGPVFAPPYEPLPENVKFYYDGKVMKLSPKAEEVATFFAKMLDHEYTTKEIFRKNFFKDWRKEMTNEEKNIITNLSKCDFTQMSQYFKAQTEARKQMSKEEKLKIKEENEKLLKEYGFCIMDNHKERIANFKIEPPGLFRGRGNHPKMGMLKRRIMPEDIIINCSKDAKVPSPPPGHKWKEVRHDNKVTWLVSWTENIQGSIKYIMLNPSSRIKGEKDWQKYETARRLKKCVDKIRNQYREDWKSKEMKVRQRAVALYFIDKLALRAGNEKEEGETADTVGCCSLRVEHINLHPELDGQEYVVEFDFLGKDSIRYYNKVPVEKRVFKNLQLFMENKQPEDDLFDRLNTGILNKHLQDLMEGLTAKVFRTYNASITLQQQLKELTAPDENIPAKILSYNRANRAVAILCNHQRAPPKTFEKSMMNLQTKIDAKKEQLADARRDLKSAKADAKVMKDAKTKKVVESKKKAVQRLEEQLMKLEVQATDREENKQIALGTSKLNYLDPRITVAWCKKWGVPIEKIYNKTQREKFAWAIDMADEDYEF
UniProt Q15025: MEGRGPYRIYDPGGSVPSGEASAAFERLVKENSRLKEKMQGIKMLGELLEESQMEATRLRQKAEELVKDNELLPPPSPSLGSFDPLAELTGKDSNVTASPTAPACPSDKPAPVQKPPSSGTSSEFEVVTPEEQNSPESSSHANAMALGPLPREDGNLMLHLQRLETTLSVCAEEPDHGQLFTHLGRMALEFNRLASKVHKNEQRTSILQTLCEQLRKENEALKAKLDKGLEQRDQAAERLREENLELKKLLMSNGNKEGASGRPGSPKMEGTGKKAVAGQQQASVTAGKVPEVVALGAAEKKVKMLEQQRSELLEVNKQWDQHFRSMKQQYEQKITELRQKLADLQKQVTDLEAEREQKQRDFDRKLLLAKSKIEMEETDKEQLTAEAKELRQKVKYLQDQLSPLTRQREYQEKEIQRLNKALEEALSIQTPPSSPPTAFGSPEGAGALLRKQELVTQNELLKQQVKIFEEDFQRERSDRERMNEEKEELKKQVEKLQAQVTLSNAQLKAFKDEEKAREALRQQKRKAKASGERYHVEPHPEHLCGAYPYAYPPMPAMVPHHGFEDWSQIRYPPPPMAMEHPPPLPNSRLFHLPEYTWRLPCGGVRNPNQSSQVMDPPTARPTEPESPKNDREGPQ
UniProt O60704: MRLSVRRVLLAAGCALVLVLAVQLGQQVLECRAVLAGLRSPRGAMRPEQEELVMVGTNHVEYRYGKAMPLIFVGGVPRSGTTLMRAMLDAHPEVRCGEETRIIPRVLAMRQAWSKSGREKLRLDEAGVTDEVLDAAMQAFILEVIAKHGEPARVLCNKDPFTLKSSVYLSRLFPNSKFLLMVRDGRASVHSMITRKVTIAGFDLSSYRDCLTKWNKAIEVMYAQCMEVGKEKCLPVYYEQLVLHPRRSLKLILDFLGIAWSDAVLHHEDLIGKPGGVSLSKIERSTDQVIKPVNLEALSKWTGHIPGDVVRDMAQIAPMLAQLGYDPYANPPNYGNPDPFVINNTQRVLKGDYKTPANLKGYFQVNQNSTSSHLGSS
UniProt P67936, whole entry, looked up: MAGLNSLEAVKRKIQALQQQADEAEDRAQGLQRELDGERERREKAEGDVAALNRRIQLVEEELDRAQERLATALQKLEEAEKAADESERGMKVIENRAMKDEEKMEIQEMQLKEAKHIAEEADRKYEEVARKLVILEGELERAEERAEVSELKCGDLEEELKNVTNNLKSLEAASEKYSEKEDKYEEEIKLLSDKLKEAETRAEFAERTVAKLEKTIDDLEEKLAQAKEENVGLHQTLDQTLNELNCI
UniProt P60174, whole entry, looked up: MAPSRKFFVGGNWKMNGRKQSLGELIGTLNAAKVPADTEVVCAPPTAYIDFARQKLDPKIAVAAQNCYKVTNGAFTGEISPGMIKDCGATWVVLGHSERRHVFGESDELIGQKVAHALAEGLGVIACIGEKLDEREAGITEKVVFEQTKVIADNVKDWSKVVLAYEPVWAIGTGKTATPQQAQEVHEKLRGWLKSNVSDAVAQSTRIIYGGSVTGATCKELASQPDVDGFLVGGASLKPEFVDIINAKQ
UniProt P28289: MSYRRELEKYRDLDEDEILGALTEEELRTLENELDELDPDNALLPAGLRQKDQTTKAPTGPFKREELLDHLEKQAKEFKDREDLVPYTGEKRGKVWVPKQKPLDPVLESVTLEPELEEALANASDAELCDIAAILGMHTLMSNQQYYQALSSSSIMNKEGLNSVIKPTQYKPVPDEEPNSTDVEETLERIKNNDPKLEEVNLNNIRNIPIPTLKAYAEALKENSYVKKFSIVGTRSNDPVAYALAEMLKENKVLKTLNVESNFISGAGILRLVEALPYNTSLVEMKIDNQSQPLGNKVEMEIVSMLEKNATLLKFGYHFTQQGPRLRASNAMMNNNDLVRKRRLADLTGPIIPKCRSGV

log2 fold change, inactive:
TMX3 (UniProt Q96JJ7) 0.016, TOR3A (UniProt Q9H497) -0.11, TMEM63B (UniProt Q5T3F8) 0.004, TPP2 (UniProt P29144) 0.01, TPP1 (UniProt O14773) 0.014, TNIK isoform 4 (UniProt Q9UKE5) -0.015, TPD52L2 isoform 7 (UniProt O43399) -0.033, TMEM38B (UniProt Q9NVV0) 0.027, TRA2A (UniProt Q13595) -0.033, TOMM22 (UniProt Q9NS69) 0.009, TPM1 isoform 4 (UniProt P09493) -0.012, TOM1 isoform 2 (UniProt O60784) -0.024, TMOD3 (UniProt Q9NYL9) 0.019, TMEM97 (UniProt Q5BJF2) -0.027, TMEM68 (UniProt Q96MH6) 0.066, TPM3 isoform 2 (UniProt P06753) -0.024, TPX2 (UniProt Q9ULW0) -0.013, TOP1 (UniProt P11387) 0.011, TNIP1 (UniProt Q15025) -0.031, TOMM70 (UniProt O94826) -0.013, TMEM219 (UniProt Q86XT9) 0.003, TPMT (UniProt P51580) 0.017, TP53I3 (UniProt Q53FA7) -0.031, TPST2 (UniProt O60704) 0.009, TOP2B isoform 2 (UniProt Q02880) 0.024, TPM3 (UniProt P06753) 0.009, TPM4 isoform 2 (UniProt P67936) -0.016, TPI1 (UniProt P60174) -0.002, TMEM87B (UniProt Q96K49) 0.047, TNFRSF1B (UniProt P20333) -0.064, TMEM245 (UniProt Q9H330) -0.018, TONSL (UniProt Q96HA7) 0.1, TMOD1 (UniProt P28289) -0.02
